# According to PubChem BioAssay AID2284352 (EPA ToxCast):
# The shares of active, inactive and inconclusive entries below differ from those in the screen. A potency beside an inconclusive call is a rough fit, not a confirmed value. Activity calls are given as the source filed them. How the source made its calls: active means hit-call score of the fitted dose curve at least 0.9, where 1 is the maximum; inconclusive means response in the unintended direction; inactive means score below 0.9.
# Test system: rainbow trout Peroxisome Proliferator-activated Receptor gamma (PPARg), gene 110528708
# Assay: ATG_rtPPARg_EcoTox2: Attagene TRANS-FACTORIAL EcoTox-2 HepG2 Assay for rainbow trout Peroxisome Proliferator-activated Receptor gamma (PPARg)
# Description: ATG_EcoTox2 is a cell-based, multiplexed assay created by modifying the existing Attagene TRANS-FACTORIAL system to include a panel of nuclear receptors from some or all the following species: human (Homo sapiens), african clawed frog (Xenopus laevis), rainbow trout (Oncorhynchus mykiss), japanese medaka (Oryzias latipes), and zebrafish (Danio rerio). The ECOTOX2-FACTORIAL format uses HepG2, a human liver cell line, with measurements taken at 24 hours after chemical dosing in a 24-well plate. ATG_rtPPARg_EcoTox2 is one of 29 assay components calculated in the ATG_EcoTox2 assay. It is designed to make measurements of mRNA induction, a form of inducible reporter, as detected with fluorescence intensity signals by Reverse transcription polymerase chain reaction (RT-PCR) and Capillary electrophoresis technology.The assay endpoint ATG_rtPPARg_EcoTox2 was analyzed in the positive analysis fitting direction relative to DMSO as the negative control and baseline of activity. Using a type of inducible reporter, measures of mRNA for gain-of-signal activity can be used to understand the reporter gene at the transcription factor-level as they relate to the gene PPARg. Furthermore, this assay endpoint can be referred to as a primary readout, because this assay has produced multiple assay endpoints where this one serves a reporter gene function. To generalize the intended target to other relatable targets, this assay endpoint is annotated to the nuclear receptor intended target family, where the subfamily is non-steroidal.
# Human liver HepG2 cells are transiently transfected with multiple reporter transcription units (MRTUs) in 6-well plates using FuGene 6 reagent (Roche; 3 ml FuGene/1 mg DNA). The MRTU constructs are regulated by a cis-regulating element (promoter). Each RTU expresses a GAL4-UAS that regulates the transcription of a nearby target reporter gene sequence. A major difference between the CIS and TRANS system is that in CIS activities of endogenous TFs are measured, whereas the TRANS assay evaluates changes in activities of exogenous, chimeric NR-Gal4 proteins. […] At the end of 24 hour incubation, total RNA was isolated using TriZol reagent (Invitrogen). The isolated RNA is then reverse-transcribed using oligo(dT) primer and Mo-MLV reverse transcriptase (Invitrogen) with DNAse I (Ambion) treatment for 30 min. The one-tenth of the produced cDNA was amplified by PCR using Taq DNA polymerase (Invitrogen) and two reporter sequence-specific primers. The PCR products were fluorescently labeled by primer extension with 6-arboxyfluorescein (6-FAM) 5'-labeled reporter sequence-specific primer (2 min at 95 C, 20 s at 68 C and 10 min at 72 C) and these products were digested with 5U of HpaI (New England Biolabs) for 2h at 37 C. The fragments were purified using Qiaquick PCR columns (Qiagen), analyzed on an ABI 3130xL genetic analyzer (Applied Biosystems) with peak positions identified by using a set of X-rhodamine (ROX)-labeled MapMarker1000 molecular weight standards (BioVentures). The raw capillary electrophoresis data was processed using Attagraph software (Attagene).
Compound,outcome,AC50
CC(C)(Oc1ccc(Cl)cc1)C(=O)O,inactive,
CC(c1cc2ccccc2s1)N(O)C(N)=O (configuration not stated),,inconclusive: 0.908 µM
Cc1c(C)c2c(c(C)c1O)CCC(C)(COc1ccc(CC3SC(=O)NC3=O)cc1)O2 (configuration not stated),,inconclusive: 0.42 µM
CC(C)OC(=O)C(C)(C)Oc1ccc(C(=O)c2ccc(Cl)cc2)cc1,inactive,
CC(C)(Oc1ccc(CCNC(=O)c2ccc(Cl)cc2)cc1)C(=O)O,,inconclusive: 79.7 µM
CC(C)(Oc1ccc(C2CC2(Cl)Cl)cc1)C(=O)O (configuration not stated),,inconclusive: 19.8 µM
Cc1cccc(Nc2cc(Cl)nc(SCC(=O)O)n2)c1C,,inconclusive: 11.4 µM
C[C@@H]1C[C@H]2[C@@H]3CCC4=CC(=O)C=C[C@]4(C)[C@@]3(F)[C@@H](O)C[C@]2(C)[C@@]1(O)C(=O)COP(=O)(O)O,,inconclusive: 50 µM
C[C@]12C=CC(=O)C=C1CC[C@@H]1[C@@H]2C(=O)C[C@@]2(C)[C@H]1CC[C@]2(O)C(=O)CO,inactive,
Cc1nc(-c2ccc(C(F)(F)F)cc2)sc1C(=O)NCc1ccc(OC(C)(C)C(=O)O)cc1,,inconclusive: 0.195 µM
CN(CCOc1ccc(CC2SC(=O)NC2=O)cc1)c1ccccn1 (configuration not stated),,inconclusive: 0.325 µM
C=C(c1ccc(C(=O)O)cc1)c1cc2c(cc1C)C(C)(C)CCC2(C)C,,inconclusive: 1.4 µM

# A section from the list above:
Compound,outcome,AC50
C[C@@H]1C[C@H]2[C@@H]3CCC4=CC(=O)C=C[C@]4(C)[C@@]3(F)[C@@H](O)C[C@]2(C)[C@@]1(O)C(=O)COP(=O)(O)O,,inconclusive: 50 µM
C[C@]12C=CC(=O)C=C1CC[C@@H]1[C@@H]2C(=O)C[C@@]2(C)[C@H]1CC[C@]2(O)C(=O)CO,inactive,
